This experiment in a line: qHTS Assay to Find Inhibitors of Chronic Active B-Cell Receptor Signaling. The note with it: ABC-DLBCL IkBa-CBG/CBR reporter, luminescence ratio (green luciferase fused to IkBa over red control in TMD8 lymphoma cells), 4 h. Put shortly: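 TMD8 human ABC-DLBCL cells with doxycycline-inducible IκBα–green luciferase fusion and unfused red luciferase, in 0.5% FBS medium; compounds up to 46 uM, 4 h at 37C. Green/red luminescence ratio, filter-overlap corrected, fitted to concentration-response curves.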

[1] abbreviates: measured here: CBR red luminescence, cell number.
The mark [2] stands for this setting: measured here: IkBa-CBG green luminescence.

The list shows a part of the results. Shown are side measurements of this screen, not its main read-out; they come without a call. The list favours compounds with an active or inconclusive main result. The note in brackets gives the kind of curve behind each potency; many fits are weak.

On to `COc1ccc2c(c1)-c1ccccc1S(=O)(=O)N2C(C)=O`, for which the concentration at half-maximal activity (AC50) under setting [1] was 11.2 µM [rising, partial curve]. As to `O=c1/c(=C/c2ccccn2)sc2n1CN(c1ccccc1)CN=2`, the concentration at half-maximal activity (AC50) under setting [1] is 12.6 µM [falling, single point]. Same read-out and setting: under `Cc1ccc(CN2CCNC(=O)C2CC(=O)O)o1` (configuration not stated) stands 10.3 µM [rising, partial curve, poor fit]. Same read-out and setting: under `N#Cc1ccc(N2Cc3ccccc3C2=NC(=O)c2cccnc2Cl)cc1` stands 4.11 µM [rising, single point]; under `CC(C)Cc1nnc(NC(=O)CCC(=O)N2CCN(c3ccc([N+](=O)[O-])cc3)CC2)s1`, 14.1 µM [falling, single point]. Turning to `Cc1ccc2nc(NC(=O)C3CCN(S(=O)(=O)c4cccnc4)CC3)sc2c1`, the AC50 under setting [2] was 15.8 µM [rising, partial curve, poor fit]. Regarding `N/C(=N\OC(=O)c1ccc(F)cc1)c1ccccc1`, the AC50 under setting [1] is 14.1 µM [falling, single point].

`Cc1ccc(Nc2nnc(SCC3CCCCO3)s2)cc1` (configuration not stated): the AC50 under setting [1] is 9.2 µM [falling, single point]. On the same count and under the same terms, with `COc1cccc(CN2CCN(Cc3cccc4c3OCO4)CC2CCO)c1` (configuration not stated) the figure was 11.2 µM [falling, partial curve]. Same read-out and setting: with `CN(C)S(=O)(=O)N1CCCC(C(=O)c2ccc(-c3ccccc3)c(F)c2)C1` (configuration not stated) the figure was 5.62 µM [rising, single point]; with `O=C(O)c1ccc(N2C(=O)c3cccc4cccc(c34)C2=O)cc1`, 35.5 µM [falling, single point]. With `COC(=O)c1ccc(NC(=O)C(=O)N2CCN(C(=S)Nc3cccc(C)c3C)CC2)cc1`, under setting [1], the AC50 is 16.4 µM [falling, single point].

Regarding `CCCCc1c(C)nc2ccc(OC)cc2c1SCCC(=O)O`, the AC50 under setting [1] was 5.62 µM [falling, single point]. Still for that read-out and setting: with `COc1ccc(OC)c(-c2cc(C(=O)NC3CCCC3)c3ccccc3n2)c1` the figure was 3.55 µM [rising, full curve, poor fit]; with `Cc1ccc(NC(=O)COc2ccccc2C(N)=O)cc1S(=O)(=O)N1CCCCCC1`, 29.1 µM [falling, single point]; with `COCCn1nnnc1C(c1ccc(OC)cc1)N1CCN(c2ccccc2F)CC1` (configuration not stated), 32.6 µM [rising, single point]. For `CCOc1cccc2cc(-c3csc(NC(=O)CCC(=O)NCCN4CCCCC4C)n3)c(=O)oc12` (configuration not stated), the AC50 under setting [1] is 0.224 µM [falling, full curve, poor fit]. Turning to `CN(C)c1ccc(/C=N/NC(=O)c2ccc(Cl)cc2)cc1`, the AC50 under setting [1] is 2.51 µM [falling, partial curve, poor fit].

Take `CN(C)C(=O)CSc1n[nH]c(=O)n1CCc1ccccc1`: the AC50 under setting [1] is 2.51 µM [falling, full curve, poor fit]. Still for that read-out and setting: under `COc1ccc(OCc2cc(C(=O)N3C[C@H]4CC[C@H]3C4)no2)c(Cl)c1` stands 35.5 µM [falling, single point]. Take `Cc1cccc(N2CCN(C(=O)c3ccc4c(c3)c(C)c(C)n4C)CC2C)c1` (configuration not stated): under setting [1], the AC50 was 35.5 µM [falling, single point]. On the same count and under the same terms, under `Cc1ccn2cc(C(=O)Nc3cccc(C(=O)NC4CC4)c3)nc2c1` stands 6.51 µM [falling, partial curve]. In the case of `Cc1ccc(Nc2nc(N)nc(-c3oc4ccccc4c3C)n2)cc1`, the AC50 is 2.82 µM [rising, full curve] under setting [1] and 0.562 µM [falling, full curve] under setting [2]. For `C/C(CC(=O)Nc1cccc(Br)c1)=N\NC(=O)c1ccc(O)cc1O`, the AC50 under setting [1] is 10 µM [falling, partial curve]. Consider `COc1cc(S(=O)(=O)Nc2cccc(C)c2)ccc1N=Cc1c(C)[nH]n(-c2ccccc2)c1=O`, for which, under setting [2], the AC50 was 20.6 µM [rising, partial curve, poor fit]. For the molecule `Cc1ccc(S(=O)(=O)Cn2nnnc2CN2CCCC3(CCCCC3)C2)cc1`, the half-maximal activity concentration (AC50) under setting [1] is 29.1 µM [falling, single point]. Same read-out and setting: with `Cc1nc(CCNC(=O)C2CCC(=O)N(Cc3ccc(Cl)cc3)C2)sc1C` (configuration not stated) the figure was 12.6 µM [falling, single point]; with `Cc1cccn2cc(CCNC(=O)c3ccc(Br)o3)nc12`, 20.6 µM [falling, partial curve]. Still for that read-out and setting: with `O=S(=O)(c1ccc(NC(=S)N/N=C/c2ccc(N3CCOCC3)cc2)cc1)N1CCOCC1` the figure was 16.4 µM [falling, partial curve]; with `Cc1cccc(N(C(=O)C(F)(F)F)C(C(=O)NC2CCCCC2)c2cccs2)c1` (configuration not stated), 3.55 µM [falling, partial curve, poor fit]. On the same count and under the same terms, under `COc1cc(CNC(C)C)ccc1OCC(=O)Nc1cccc2ccccc12` stands 25.1 µM [falling, single point]; under `Cc1ccc(-n2c(SCC(N)=O)nc3c([nH]c4ccccc43)c2=O)cc1`, 0.651 µM [falling, full curve]; under `Cc1ccc(Nc2nc(N3CCOCC3)c3ccccc3n2)cc1`, 17.8 µM [falling, single point].

For `COC(=O)c1sc(NC(=O)c2ccoc2C)nc1C`, the concentration at half-maximal activity (AC50) under setting [1] was 13 µM [falling, partial curve].

As for `Cc1cccc2cc3c(nc12)-c1ccccc1C3=O`, under setting [1], the AC50 was 11.2 µM [rising, partial curve]. Same read-out and setting: with `Cc1ccc2nc(SCC(=O)c3ccc(Cl)cc3)nc(=O)n2c1` the figure was 0.461 µM [falling, full curve, poor fit]. Take `CCOc1ccccc1NC(=O)COc1ccc(S(=O)(=O)N2CCCC2)cc1`: under setting [1], the concentration at half-maximal activity (AC50) was 20 µM [falling, single point].

On to `CCn1cnc2c1c(=O)n(Cc1nnc3n1-c1ccccc1SC3)c(=O)n2Cc1ccccc1`, for which the AC50 under setting [1] is 16.4 µM [falling, partial curve, poor fit]. Still for that read-out and setting: under `CCCn1c(N/N=C\C=C\c2ccccc2)nc2c1c(=O)[nH]c(=O)n2C` stands 22.4 µM [rising, partial curve, poor fit]; under `Cn1c(-c2ccccc2)cnc1SCc1nc2ccccc2c(=O)[nH]1`, 2.06 µM [rising, full curve, poor fit]; under `O=C(CNC(=O)C(c1ccccc1)c1ccccc1)OCc1ccccc1`, 3.55 µM [rising, partial curve, poor fit].

The record behind these values is PubChem BioAssay AID493014 (National Center for Advancing Translational Sciences (NCATS), 2011).
